At least one compound was matched to its structure with a doubt left.
Legend:
ACC-1G6.4+ACC-3D10.5 = biological target: T1, ACC-1G6.4+ACC-3D10.5 (Caenorhabditis elegans, UniProt G5EDN0+Q21005); test: Two-electrode voltage-clamp of Xenopus oocytes co-expressing ACC-1G6.4+ACC-3D10.5; format: cell-based, C. elegans
T1 sequence (G5EDN0 1-517): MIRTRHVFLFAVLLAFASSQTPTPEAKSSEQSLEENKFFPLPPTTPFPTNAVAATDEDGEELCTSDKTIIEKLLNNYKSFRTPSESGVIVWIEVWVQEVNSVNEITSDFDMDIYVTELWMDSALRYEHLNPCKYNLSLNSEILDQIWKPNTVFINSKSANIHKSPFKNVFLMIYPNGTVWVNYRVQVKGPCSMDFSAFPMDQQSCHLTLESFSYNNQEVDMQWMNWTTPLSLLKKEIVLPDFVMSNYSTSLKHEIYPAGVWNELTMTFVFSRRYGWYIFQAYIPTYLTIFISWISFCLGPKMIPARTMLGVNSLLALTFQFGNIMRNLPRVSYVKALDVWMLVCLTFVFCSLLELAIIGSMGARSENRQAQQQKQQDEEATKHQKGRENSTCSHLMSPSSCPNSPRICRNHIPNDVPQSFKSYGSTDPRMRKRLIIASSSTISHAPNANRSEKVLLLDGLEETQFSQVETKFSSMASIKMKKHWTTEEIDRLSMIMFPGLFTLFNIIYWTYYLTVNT
T1 sequence (Q21005 1-466): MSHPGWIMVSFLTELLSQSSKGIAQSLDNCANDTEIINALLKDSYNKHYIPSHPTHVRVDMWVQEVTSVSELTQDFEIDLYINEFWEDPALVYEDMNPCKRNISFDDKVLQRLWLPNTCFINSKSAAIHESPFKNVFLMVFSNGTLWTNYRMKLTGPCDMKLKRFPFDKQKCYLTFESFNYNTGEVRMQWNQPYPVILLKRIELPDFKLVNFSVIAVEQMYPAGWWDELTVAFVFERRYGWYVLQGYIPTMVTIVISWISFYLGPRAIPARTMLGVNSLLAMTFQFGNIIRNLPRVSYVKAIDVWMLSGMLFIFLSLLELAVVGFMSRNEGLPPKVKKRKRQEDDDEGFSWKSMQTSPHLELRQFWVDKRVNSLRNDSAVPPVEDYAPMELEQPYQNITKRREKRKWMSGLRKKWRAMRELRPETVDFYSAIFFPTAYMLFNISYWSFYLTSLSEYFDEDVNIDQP

ACC-1G6.4 channel = biological target: T2, ACC-1G6.4 channel (Caenorhabditis elegans, UniProt Q21005); test: Two-electrode voltage-clamp of Xenopus oocytes expressing ACC-1G6.4 homomeric channel; format: cell-based, C. elegans; settings: for agonist action (in words): concentration tested in brackets where printed
T2 construct: Agonist: percentage of maximal acetylcholine-elicited response; other: compound at 0.1 mM; Agonist: percentage of maximal acetylcholine-elicited response; other: compound at 0.2 mM; other: compound at 0.4 mM; other: compound at 0.8 mM; Agonist: percentage of maxim
Excerpt: For capped cRNA synthesis, cDNAs were subcloned into the pT7N vector, which contains a T7 RNA polymerase promoter, the 5′- and 3′-UTR of Xenopus laevis beta-globin, and an encoded poly(A+) tail (Cary R B, Klymkowsky M W, Evans R M, Domingo A, Dent J A, Backhus L E (1994) Vimentin's tail interacts with actin-containing structures in vivo. J Cell Sci 107:1609-1622.). The pT7NcDNA constructs were linearized with Sal I (ACC-2D6.3) or BamHI (ACC-1G6.4) and transcribed using the MEGAscript Kit (Ambion, Austin, Tex., USA). Synthesized cRNAs were recovered by LiCl precipitation and resuspended in nuclease-free H2O at final concentration of 1 microgram/ml.
Oocytes were harvested from mature female Xenopus leavis according to standard procedures (Goldin, A. L. (1992) Maintenance of Xenopus laevis and oocyte injection. Methods Enzymol. 207: 266-79.). To remove inner ovarian epithelium, thecal cell layer, and follicular cells, the ovarian pieces were placed in OR-2 solution: 82.5 mM NaCl, 2 mM KCl, 1 mM MgCl2, and 5 mM Hepes (pH 7.5) containing 1 mg/ml type I collagenase (Sigma, St Louis Mo., USA) either for 3 hours at 20° C. with gentle agitation or for 1 hour followed by manual defolliculization. The stage VI defolliculated oocytes were placed in ND96 solution (96 mM NaCl, 2 mM KCl, 1.8 mM CaCl2, 1 mM MgCl2, and 5 mM Hepes, pH7.5). Oocytes were injected with 40 nl of cRNA using the Nanoject system (Drummond Scientific, Broomall, Pa., USA). Injected oocytes were incubated at 20° C. in ND96 supplemented with […] gentamycin and […] pyruvate. Oocytes were allowed to express cRNA for two days before measurements were taken.
Two-electrode voltage-clamp recordings were performed using the AxoClamp 2B amplifier (Axon Instruments, Foster City, Calif., USA). Microelectrodes were pulled from borosilicate glass capillaries (Word Precision Instruments, Inc., Sarasota, Fla., USA) on the P-97 micropipette puller Sutter Instruments, Novato, Calif., USA). […]

CC(=O)OCC[N+](C)(C)C [ACh, acetylcholine]
estimated Hill coefficient (ACC-1G6.4+ACC-3D10.5): 0.78±0.02
estimated Hill coefficient (agonist) (ACC-1G6.4 channel; agonist dose-response): 1.26±0.04
agonist action (in words) (ACC-1G6.4 channel): Agonist
agonist action (in words) (ACC-1G6.4 channel; listed as acetylcholine): agonists
